Reference: patent EP2559433A1, “Composition for lowering blood lipid and elevating high-density lipoprotein and method for manufacturing the same” (Sunway Biotech Co., Ltd., priority 2011, dated 2013)
For at least one compound, name, drawing or mass did not settle the structure.

Assays:
[1] = tested on: lipid plaque on arterial vascular walls in the thoracic cavity; test: Lipid plaque staining in arteries; format: in vivo, hamsters; conditions: Fig. 11; high cholesterol diet for eight weeks; MK 2.89 mg, MS 9.82 mg, AF 1.43 mg adult human equivalent per day
Protocol: Firstly, the experiment utilizes hamsters feed with high cholesterol diet as experimental animals, which are then feed with MS, AF, MS+AF, and MK for 8 weeks, and then each of cholesterol parameters in blood of the hamsters are analyzed. The cholesterol parameters include total cholesterol (TC), triglyceride (TG), high density lipoprotein cholesterol (HDL-C), low density lipoprotein cholesterol (LDL-C), ratio of LDL-C to HDL-C, and malondialdehyde (MDA). The amount of the MK taken by the experimental animals is equivalent to 2.89 mg taken by an adult human per day. Additionally, a normal diet group is referred to as NOR, and a high cholesterol diet group is referred to as HC.
Another important indicator for evaluating atherosclerosis is the analysis of lipid plaque staining in arteries, and the results of lipid plaque staining can indicate that whether lipid plaque deposits on arterial vascular walls. Large amounts of lipid with over-oxidation can cause bulk deposition of foam cells, and then the vascular walls lose elasticity and large amounts of lipid plaque are deposited, so as to lead to atherosclerosis. Referring to Fig. 11, which is a diagram of quantitative results of the lipid plaque staining experiment.

[2] = tested on: cholesterol biosynthesis; test: Cell experiment on inhibition of cholesterol biosynthesis; format: cell-based; conditions: Fig. 12; cells treated at the same concentration (100 ppb)
From the text: In order to compare the inhibitory effect of cholesterol biosynthesis by monascin, ankaflavin and monacolin K, the present invention applies a cell experiment and treats cells with monascin, ankaflavin and monacolin K with the same concentration (100 ppb) for researching the influence of these ingredients on the cholesterol biosynthesis. Referring to Fig. 12, which is a comparative diagram for the effect of the inhibition of cholesterol by monascin, ankaflavin and monacolin K with the same concentration.

SMILES	amount of lipid plaque [1]	effect of inhibiting the biosynthesis of cholesterol [2]
C/C=C/C1=CC2=C(CO1)C(=O)[C@]1(C)OC(=O)[C@H](C(=O)CCCCC)[C@H]1C2 [MS, monascin]	the effect of the MK group is not as good as that of the MS	followed by monascin
C/C=C/C1=CC2=C(CO1)C(=O)[C@]1(C)OC(=O)[C@H](C(=O)CCCCCCC)[C@H]1C2 [AF, ankaflavin]	the effect of the AF group is better than that of the MS group	–
